{"source": "PubChem BioAssay AID1671195 – Yale University – 2021", "test": "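Knockdowns that increase or decrease uptake of fluorescent LDL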 (primary screen)", "cells": "human Huh7 hepatoma cells", "reagent": "siRNA pool against human genes, 18 nM", "duration": "about 2 to 2.5 days of knockdown, then 8 h LDL uptake", "conditions": "DiI-labelled LDL at 30 µg/ml for 8 h, in lipoprotein-deficient serum medium", "measurement": "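Per-cell DiI-LDL intensity by automated imaging; well means scaled to the plate median and given as a robust z-score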", "reading the numbers": "robust z-score: higher = more LDL uptake after knockdown", "active means": "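Active when two or more replicates show a robust z-score above 2 or below -2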", "note": "This is a random part of about 22,000 reagents tested. Over the whole deposit, about 1,510 (6.9%) were called active. 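Active includes knockdowns raising or lowering LDL uptake; positive z-scores mean more uptake, negative mean less.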"}
{"Target gene": "TSPEAR", "robust z-score, replicate 1": 0.884, "robust z-score, replicate 2": 1.18, "robust z-score, replicate 3": 1.31, "outcome": "inactive"}
{"Target gene": "TSEN34", "robust z-score, replicate 1": 0.569, "robust z-score, replicate 2": 0.549, "robust z-score, replicate 3": 1.24, "outcome": "inactive"}
{"Target gene": "PPA1", "robust z-score, replicate 1": 0.0833, "robust z-score, replicate 2": 0.376, "robust z-score, replicate 3": 0.441, "outcome": "inactive"}
{"Target gene": "DEFB113", "robust z-score, replicate 1": -0.925, "robust z-score, replicate 2": -0.749, "robust z-score, replicate 3": -0.758, "outcome": "inactive"}
{"Target gene": "RAB5A", "robust z-score, replicate 1": -1.27, "robust z-score, replicate 2": 0.335, "robust z-score, replicate 3": -1.41, "outcome": "inactive"}
{"Target gene": "HBB", "robust z-score, replicate 1": 2.27, "robust z-score, replicate 2": -0.36, "robust z-score, replicate 3": -2.61, "outcome": "inactive"}
{"Target gene": "LOC389182 (retired record)", "robust z-score, replicate 1": 1.12, "robust z-score, replicate 2": 0.428, "robust z-score, replicate 3": 0.163, "outcome": "inactive"}
{"Target gene": "GDPD3", "robust z-score, replicate 1": 0.307, "robust z-score, replicate 2": -1.16, "robust z-score, replicate 3": -0.364, "outcome": "inactive"}
{"Target gene": "LOC285422", "robust z-score, replicate 1": 0.517, "robust z-score, replicate 2": 0.696, "robust z-score, replicate 3": 0.708, "outcome": "inactive"}
{"Target gene": "GFM2", "robust z-score, replicate 1": -0.0503, "robust z-score, replicate 2": -0.197, "robust z-score, replicate 3": 0.257, "outcome": "inactive"}
{"Target gene": "COL1A2", "robust z-score, replicate 1": -0.371, "robust z-score, replicate 2": -1.39, "robust z-score, replicate 3": -1.32, "outcome": "inactive"}
{"Target gene": "LOC440583 (retired record)", "robust z-score, replicate 1": 1.86, "robust z-score, replicate 2": 1.1, "robust z-score, replicate 3": 2.35, "outcome": "inactive"}
{"Target gene": "TBC1D20", "robust z-score, replicate 1": 0.917, "robust z-score, replicate 2": 0.0353, "robust z-score, replicate 3": 0.627, "outcome": "inactive"}
{"Target gene": "LOC441921 (retired record)", "robust z-score, replicate 1": -0.389, "robust z-score, replicate 2": -0.164, "robust z-score, replicate 3": -0.464, "outcome": "inactive"}
{"Target gene": "WSB1", "robust z-score, replicate 1": -1.61, "robust z-score, replicate 2": -0.117, "robust z-score, replicate 3": -1.48, "outcome": "inactive"}
{"Target gene": "NEK9", "robust z-score, replicate 1": 1.01, "robust z-score, replicate 2": 0.56, "robust z-score, replicate 3": 0.986, "outcome": "inactive"}
{"Target gene": "NEURL1B", "robust z-score, replicate 1": 1.58, "robust z-score, replicate 2": 1.22, "robust z-score, replicate 3": 0.978, "outcome": "inactive"}
{"Target gene": "MRPL10", "robust z-score, replicate 1": -1.84, "robust z-score, replicate 2": -1.56, "robust z-score, replicate 3": -1.98, "outcome": "inactive"}
{"Target gene": "VANGL2", "robust z-score, replicate 1": 1.29, "robust z-score, replicate 2": 1.2, "robust z-score, replicate 3": 0.566, "outcome": "inactive"}
{"Target gene": "LOC389167 (retired record)", "robust z-score, replicate 1": 2.93, "robust z-score, replicate 2": 2.3, "robust z-score, replicate 3": 2.69, "outcome": "active"}
{"Target gene": "CHST1", "robust z-score, replicate 1": -1.97, "robust z-score, replicate 2": -2.11, "robust z-score, replicate 3": -1.89, "outcome": "inactive"}
{"Target gene": "TMEM238L", "robust z-score, replicate 1": -0.573, "robust z-score, replicate 2": -0.253, "robust z-score, replicate 3": -0.626, "outcome": "inactive"}
{"Target gene": "EEF1B2P5", "robust z-score, replicate 1": 1.18, "robust z-score, replicate 2": 1.44, "robust z-score, replicate 3": 1.32, "outcome": "inactive"}
{"Target gene": "ZNF264", "robust z-score, replicate 1": 0.42, "robust z-score, replicate 2": -0.405, "robust z-score, replicate 3": 0.401, "outcome": "inactive"}
